Laboratory results reported in article PMC6925144, “A prospective compound screening contest identified broader inhibitors for Sirtuin 1” (Scientific Reports, 2019).
Over roughly 3,200 compounds, “TSA(with NAD+) / Primary screening (TSA) / delta Tm (K)” has its median near -0.04; the highest 2% begin near 0.37. This is one part of the list.

Chains of the proteins cited; added tags and fusions are not shown. Residues count along the entry.
UniProt Q96EB6, 2-747 limits assumed: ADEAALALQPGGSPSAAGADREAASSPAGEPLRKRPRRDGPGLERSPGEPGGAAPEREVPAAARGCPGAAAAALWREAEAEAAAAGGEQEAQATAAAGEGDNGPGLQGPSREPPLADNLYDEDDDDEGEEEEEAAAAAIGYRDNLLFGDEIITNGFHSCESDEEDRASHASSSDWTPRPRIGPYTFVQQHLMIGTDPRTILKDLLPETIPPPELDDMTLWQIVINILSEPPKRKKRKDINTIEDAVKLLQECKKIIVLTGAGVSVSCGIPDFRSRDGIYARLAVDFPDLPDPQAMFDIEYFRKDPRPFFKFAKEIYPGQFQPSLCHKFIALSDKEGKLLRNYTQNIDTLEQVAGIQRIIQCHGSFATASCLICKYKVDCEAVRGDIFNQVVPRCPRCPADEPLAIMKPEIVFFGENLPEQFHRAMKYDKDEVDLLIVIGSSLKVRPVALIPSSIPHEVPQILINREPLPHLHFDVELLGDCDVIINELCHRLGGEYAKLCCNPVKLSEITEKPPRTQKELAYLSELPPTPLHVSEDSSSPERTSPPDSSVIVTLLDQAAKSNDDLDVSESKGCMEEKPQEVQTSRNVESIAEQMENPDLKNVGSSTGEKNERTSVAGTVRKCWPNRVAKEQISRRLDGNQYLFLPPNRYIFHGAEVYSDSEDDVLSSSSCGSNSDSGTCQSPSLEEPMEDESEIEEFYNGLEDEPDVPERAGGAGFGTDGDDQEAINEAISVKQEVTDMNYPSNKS

Target: NAD-dependent deacetylase Sirtuin 1 (human, UniProt Q96EB6)
Test: primary screen, delta tm
Design: single well (n = 1, as 'the same TSA')
Settings: 10 µM

Row | SMILES | TSA(with NAD+) / Primary screening (TSA) / delta Tm (K)
1 | NC(=O)c1ccccc1NC(=O)C1CC1 | -0.19
2 | NCC1(O)CCC1 | -0.15
3 | O=C(COC(=O)Cc1coc2cc(O)ccc12)Nc1cccc2ccccc12 | 0.05
4 | O=C1NC(=S)NC(=O)C1=Cc1cc2ccccc2[nH]c1=O | -0.09
5 | O=C1/C(=C\c2ccc(Br)cc2F)Cc2ccccc21 | -0.01
6 | COc1cccc(C2C(C(=O)c3ccc(F)cc3)=C(O)C(=O)N2CCCN2CCOCC2)c1OC (stereo not drawn) | -0.03
7 | Cc1cc(N2CCN(c3ncc(C(F)(F)F)cc3Cl)CC2)n2ncnc2n1 | -0.01
8 | CC(OC(=O)CC(NC(=O)OC(C)(C)C)C1CC1)c1cnc2ccccc2c1 (stereo not drawn) | 0.03
9 | Cc1ccc(N(C)S(=O)(=O)c2cccc(C(N)=O)c2)cc1 | -0.04
10 | Cc1ccc(C23CC4CC(CC(C(=O)OCC(=O)NC(=O)NCc5ccccc5)(C4)C2)C3)cc1 | 0.16
11 | CC(C)C(C)Nc1ncnc2ccsc12 (stereo not drawn) | -0.16
12 | Cc1cccc(C(=O)Nc2ccccc2Oc2ccccc2)c1 | -0.13
13 | Cc1cccc(NC(=O)CN2CCN(C(=O)c3ccccc3Oc3ccccc3)CC2)c1C | -0.16
14 | NC(=O)C1CCN(c2cc(N3CCCC3)ncn2)C1 (stereo not drawn) | -0.08
15 | CC(CNC(=O)c1cccc(Nc2ncccn2)c1)N1CCOCC1 (stereo not drawn) | -0.22
16 | NC(=O)c1cc(NC(=O)c2nn(-c3ccc(F)cc3)c3c2CCCC3)ccc1Cl | -0.03
17 | O=C1NC(=O)C2(CCN(C(=O)C34CC5CC(CC(Br)(C5)C3)C4)CC2)N1 | 0.05
18 | COCCNc1nnc(SCc2cc(=O)oc3c(C)c(O)ccc23)s1 | 0.07
19 | Cc1ccc(N2C(=O)CN=C2S)cc1 | -0.13
20 | O=S1(=O)CCC(CSc2nnc(NCC3CCCO3)s2)CC1 (stereo not drawn) | -0.25
21 | O=C(O)c1ccc2[nH]c3c(c2c1)CCCCC3 | 0.03
22 | O=S1(=O)CCC(N2CCN(c3ncnc4c3oc3ccccc34)CC2)C1 (stereo not drawn) | -0.04
23 | O=C(CCN1C(=O)NC2(CCCCC2)C1=O)NC1C2CC3CC(C2)CC1C3 (stereo not drawn) | -0.13
24 | O=C(O)[C@@H]1C[C@H]1C(=O)O | -0.12
25 | CC(C)c1noc2ncc(C(=O)Nc3cc(C(N)=O)ccc3N3CCCC3)cc12 | -0.03
26 | O=c1oc2ccc3ccccc3c2cc1-c1nc2ccccc2[nH]1 | -0.04
27 | CC(C(=O)NC(c1ccccc1)C1CC1)n1cnc2ccccc21 (stereo not drawn) | 0.05

Rewritten field by field: entries from further up
NC(=O)c1cc(NC(=O)c2nn(-c3ccc(F)cc3)c3c2CCCC3)ccc1Cl
  TSA(with NAD+) / Primary screening (TSA) / delta Tm (K): -0.03
O=C1NC(=O)C2(CCN(C(=O)C34CC5CC(CC(Br)(C5)C3)C4)CC2)N1
  TSA(with NAD+) / Primary screening (TSA) / delta Tm (K): 0.05
